± gives the standard deviation. The entries are a selection whose mix differs from that of the whole data set. The uncertainty is large for many entries.
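Note: 1 nM active piRISC with 0.1 nM target library at 33 °C single turnover.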

The test system of the first assay is MIWI (PIWIL1) piRISC loaded with L1MC piRNA (30 nt). Briefly: pre-steady-state target cleavage rate (min^-1); MIWI and MILI are mouse PIWI proteins and EfPiwi is from a freshwater sponge; tags in brackets are library labels; higher = faster piRNA-guided slicing of the target. The settings on record: guide: L1MC piRNA 5'p-UAACUAAAUACUAUGCAAGCUGUAGGUCCU; auxiliary factor: 500 nM mouse GTSF1. A digest of the protocol:
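Reactions were run for 0–8 or 0–960 min at 33 °C in HEPES–potassium acetate buffer, combining 1 nM active affinity-purified piRISC with one synthetic guide, […] transcribed, DNA-blocked target RNA library and, in some cases, 500 nM GTSF1 partner protein. Sequencing of uncleaved targets followed, with normalisation to depth and to weakly complementary targets. Three trials were pooled, k3 was capped at 0.0001 min^-1, and the pre-steady-state cleavage rate was taken from a burst-and-steady-state fit.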
Turning to UCCUGGAUGUCGUAGGAUAGUAUUUAGUUA, the “pre-steady-state target cleavage rate” value turned out to be 0.000121 ± 0.054.
With “UGGACCUACAGCUUGCAUAGUAUUUAGUUA [g2:g29:cont:t1A]”, the “pre-steady-state target cleavage rate” value was determined as 1.61 ± 0.09.
Still for that read-out and setting: as for UGGCCUACAGCUUGCAUAGUAUUUAGUUA, the figure is 1.46 ± 0.076.

The same assay, now with this note: guide: L1MC piRNA 5'p-UAACUAAAUACUAUGCAAGCUGUAGGUCCU; auxiliary factor: none (no GTSF1).
For the sequence UGGACCUACAGCUUGCAUAGUUAUUUCAAA, the “pre-steady-state target cleavage rate” value came out at 0.00051 ± 0.0096.
Still for that read-out and setting: the figure for UGGACCUACAGCUUGCAUGAGUAUUUAGUUA is 0.000824 ± 0.0085.
Same read-out and setting: as for UCCACCUACAGCUUGCAUACAUUUUACAAA, the figure is 0.000329 ± 0.015; as for “UCCUGGAUCAGCUUGCAUAGUAUUAUCAAA [g7:g22:cont:t1A]”, 0.00193 ± 0.0035; as for UCCUGGAUGUCGAACCAUACUAUUUAGUUA, 0.000184 ± 0.018.
On the same count and under the same terms, the figure for UCCACCUACAGCUUGCAUAGUAAAUACAAA is 0.000298 ± 0.012.
As for UCGACCUACAGCAACCAUAGUAUUUAGUUA, the “pre-steady-state target cleavage rate” value was 0.000881 ± 0.0062.
The same measure, in the same setting: as for UGGACCUACAGCUUGCAAUGUAUUUUCAAA, the figure is 0.00025 ± 0.0089.
Same read-out and setting: the figure for UCCACCUACAGCUACGAUAGUAUUUUCAAA is 0.000203 ± 0.016; for UCCACCUACAGGAAGCAUAGUAUUUAGAAA it is 0.000348 ± 0.0074; for UCCUGGAUGUCCUUGCAUAGUAUAUUAGUUA it is 0.0026 ± 0.0039.
On to AGGACCUACAGCUUGCAAUCUAUUUAGUUA, for which the “pre-steady-state target cleavage rate” value came out at 0.00262 ± 0.0028.
With UCCUGGAUGUGCUUCGAUAGUAUUUAGUAA, the “pre-steady-state target cleavage rate” value was 0.000938 ± 0.008.
UGGACCUACAGCUUGCAUAGUAUAUUCAAA: the “pre-steady-state target cleavage rate” value came out at 0.00143 ± 0.0051.
On to UGGACCUACAGCUUGCAUAAGUAUUUAGUUA, for which the “pre-steady-state target cleavage rate” value came out at 0.000447 ± 0.012.
Same read-out and setting: the figure for AGGACCUACAGCUUGCAUUGUAUUUACAAA is 0.00193 ± 0.0041; for UGGACCUACAGCUUGGUUAGUAUUUAGAAA it is 0.00206 ± 0.0026; for UCGACCUACAGCAUGCAUAGUAUUUAGAAA it is 0.00286 ± 0.0033.
Take UCGACCUACAGCUUGCAUACAAUUUAGUAA: the “pre-steady-state target cleavage rate” value was 0.00178 ± 0.0048.
UCCUGGAUGUCGAAGGAUACUAUUUAGUUA: the “pre-steady-state target cleavage rate” value amounted to 0.000197 ± 0.042.
Same read-out and setting: the figure for UCGACCUACAGGAAGCAUAGUAUUUACAAA is 0.000657 ± 0.0088.
The same measure, in the same setting: as for UCGACCUACACGAUGCAUAGUAUUUUCAAA, the figure is 0.000659 ± 0.01; as for UCGAGCUACAGCUUGCAUAGUAUUUUCAAA, 0.00247 ± 0.0031; as for AGGACCUACAGCUUGCAUACAUUUUUCAAA, 0.000535 ± 0.015.
On the same count and under the same terms, the figure for UGGACCUACUCGUUGCAUAGUAUUUUCAAA is 0.00076 ± 0.0054; for UCCACCUACAGCUUGCAUAGAUAUUUAGUUA it is 0.00139 ± 0.0041; for UCCACCUACAGCUAGCAUAGUAUUUACAAA it is 0.00113 ± 0.0053.
On to UCCACCUUCAGCUUGCAUAGUAUUUACAAA, for which the “pre-steady-state target cleavage rate” value turned out to be 0.00236 ± 0.0024.
In the case of UCCACCUAGAGCUUGCAUAGUAUUUUCAAA, the “pre-steady-state target cleavage rate” value was 0.00179 ± 0.0031.
Turning to UCGACCUACACGAUGCAUAGUAUUUAGAAA, the “pre-steady-state target cleavage rate” value turned out to be 0.000323 ± 0.01.
On the same count and under the same terms, the figure for UCCUGGAUGUCGAACGUUAGUGAUUUAGUUA is 0.000354 ± 0.018; for UCCACCUACAGCUACGAUAGUAUUUACAAA it is 0.00019 ± 0.018; for UGGACCUACAGCUUGCUAAGUAUUUACAAA it is 0.000916 ± 0.0061.
Still for that read-out and setting: as for UCCACCUACAGCUUGCUAAGUAUUUAGAAA, the figure is 0.000703 ± 0.0074; as for UCCUGGAUGUCGAACGUAUGUAUUUACAAA, 0.000156 ± 0.03; as for “UCCUGCUACAGCUUGCAUAGUAUUAUCAAA [g7:g25:cont:t1A]”, 0.00146 ± 0.0037.
Still for that read-out and setting: as for UGGACCUACUCGUUGCAUAGUAUUUACAAA, the figure is 0.0013 ± 0.0041.

The record behind these values is the supplement of paper PMC10338343.
